PubChem BioAssay AID720505 | Drosophila RNAi Screening Center – 2013

- Purpose: 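Fly regulators or components of the CRAC channel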 (primary screen)
- Cell system: Drosophila S2R+ cells
- Reagent: long dsRNA against Drosophila genes
- Conditions: thapsigargin (2 µM) in calcium-free buffer to empty internal stores, then 2 mM calcium added back
- Measurement: 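Fluo-4 signal in 384-well plates read on a FLIPR after thapsigargin (2 µM, calcium-free) store depletion and 2 mM calcium add-back; unnormalised mean endpoint per well; screen run twice, selected wells retested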
- Scale: calcium signal: higher = more calcium entry after store depletion
- Call rule: 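About 1500 genes called as lowering calcium entry, by varying amounts, judged against per-plate control wells with STIM1 as positive and Rho1 as negative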
- Meaning of the calls: active = called as lowering calcium entry; inactive = not called
The screen tested about 20,000 reagents; shown is a random part of those with a known target gene and a result. Of all reagents, about 2,100 (10%) are marked active. 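Raw plate signals without normalisation; calls rest on control-based scores that were not deposited; replicate 2 separates called from uncalled poorly.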 A number with no mark means an inactive call. Reagents against one gene are numbered here. A plus sign joins genes that one reagent is predicted to hit. The record does not give: the amount of reagent, the time to read-out.

ato
- calcium signal, replicate 1: 63.7 (active)
- calcium signal, replicate 2: 142

ppk10
- calcium signal, replicate 1: 136
- calcium signal, replicate 2: 77.7

ND-51
- calcium signal, replicate 1: 95.6
- calcium signal, replicate 2: 216

Pitslre #1
- calcium signal, replicate 1: 64.6 (active)
- calcium signal, replicate 2: 90.4

Pitslre #2
- calcium signal, replicate 1: 74.7
- calcium signal, replicate 2: 114

Rad51D
- calcium signal, replicate 1: 138
- calcium signal, replicate 2: 143

ND-13A
- calcium signal, replicate 1: 123
- calcium signal, replicate 2: 81.4

vrs
- calcium signal, replicate 1: 141
- calcium signal, replicate 2: 82.4

CG6638
- calcium signal, replicate 1: 104
- calcium signal, replicate 2: 69.6

NT5E-2
- calcium signal, replicate 1: 126
- calcium signal, replicate 2: 130

csul
- calcium signal, replicate 1: 137
- calcium signal, replicate 2: 176

sotv + CG10731 #1
- calcium signal, replicate 1: 113
- calcium signal, replicate 2: 116

sotv + CG10731 #2
- calcium signal, replicate 1: 133
- calcium signal, replicate 2: 157

Active calls (from the list above):
ato
- calcium signal, replicate 1: 63.7 (active)
- calcium signal, replicate 2: 142

Pitslre #1
- calcium signal, replicate 1: 64.6 (active)
- calcium signal, replicate 2: 90.4
